Experimental data reported in the supplement of paper PMC10849652.
This is one part of the list.

By UniProt entry, the sequences of proteins in these tests, tags left out. Where a name states a change or a piece, a line headed by the entry shows the natural chain unless it says otherwise.
UniProt Q9H6N6: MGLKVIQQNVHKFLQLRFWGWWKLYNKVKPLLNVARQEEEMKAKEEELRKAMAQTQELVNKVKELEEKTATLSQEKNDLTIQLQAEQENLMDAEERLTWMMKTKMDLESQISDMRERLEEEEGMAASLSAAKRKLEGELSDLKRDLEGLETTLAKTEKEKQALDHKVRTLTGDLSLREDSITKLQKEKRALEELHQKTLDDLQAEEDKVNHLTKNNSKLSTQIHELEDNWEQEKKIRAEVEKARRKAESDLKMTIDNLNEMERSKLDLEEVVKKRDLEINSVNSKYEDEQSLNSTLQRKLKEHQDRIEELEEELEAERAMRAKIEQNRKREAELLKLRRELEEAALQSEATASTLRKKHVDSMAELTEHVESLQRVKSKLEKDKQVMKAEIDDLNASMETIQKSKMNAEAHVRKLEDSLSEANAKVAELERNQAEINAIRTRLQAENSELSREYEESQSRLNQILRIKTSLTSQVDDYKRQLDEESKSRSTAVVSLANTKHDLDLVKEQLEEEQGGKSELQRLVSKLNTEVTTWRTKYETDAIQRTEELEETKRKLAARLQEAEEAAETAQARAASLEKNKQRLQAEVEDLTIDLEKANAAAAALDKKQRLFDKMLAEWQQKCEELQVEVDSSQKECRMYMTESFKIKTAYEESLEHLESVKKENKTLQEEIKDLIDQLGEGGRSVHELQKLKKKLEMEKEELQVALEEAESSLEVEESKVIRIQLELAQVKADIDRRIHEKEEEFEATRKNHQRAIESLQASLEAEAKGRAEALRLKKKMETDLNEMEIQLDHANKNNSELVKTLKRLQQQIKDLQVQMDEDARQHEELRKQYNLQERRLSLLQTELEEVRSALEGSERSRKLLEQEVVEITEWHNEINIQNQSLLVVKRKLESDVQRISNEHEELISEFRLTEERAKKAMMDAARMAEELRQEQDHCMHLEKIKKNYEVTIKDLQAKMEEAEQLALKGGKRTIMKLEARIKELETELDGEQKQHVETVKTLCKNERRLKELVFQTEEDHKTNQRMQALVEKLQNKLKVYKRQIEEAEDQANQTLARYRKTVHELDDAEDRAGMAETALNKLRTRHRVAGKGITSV
UniProt P00414, whole entry, looked up: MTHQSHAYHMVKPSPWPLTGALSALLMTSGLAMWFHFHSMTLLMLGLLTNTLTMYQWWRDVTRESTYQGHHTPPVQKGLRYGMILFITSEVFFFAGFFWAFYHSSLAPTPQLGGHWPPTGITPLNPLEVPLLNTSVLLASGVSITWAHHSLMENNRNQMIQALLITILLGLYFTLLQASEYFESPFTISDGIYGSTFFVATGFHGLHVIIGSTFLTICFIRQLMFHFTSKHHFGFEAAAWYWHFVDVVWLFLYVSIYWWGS
MTHFD1, A0A384N5Y3, UniProt A0A384N5Y3, whole entry, looked up: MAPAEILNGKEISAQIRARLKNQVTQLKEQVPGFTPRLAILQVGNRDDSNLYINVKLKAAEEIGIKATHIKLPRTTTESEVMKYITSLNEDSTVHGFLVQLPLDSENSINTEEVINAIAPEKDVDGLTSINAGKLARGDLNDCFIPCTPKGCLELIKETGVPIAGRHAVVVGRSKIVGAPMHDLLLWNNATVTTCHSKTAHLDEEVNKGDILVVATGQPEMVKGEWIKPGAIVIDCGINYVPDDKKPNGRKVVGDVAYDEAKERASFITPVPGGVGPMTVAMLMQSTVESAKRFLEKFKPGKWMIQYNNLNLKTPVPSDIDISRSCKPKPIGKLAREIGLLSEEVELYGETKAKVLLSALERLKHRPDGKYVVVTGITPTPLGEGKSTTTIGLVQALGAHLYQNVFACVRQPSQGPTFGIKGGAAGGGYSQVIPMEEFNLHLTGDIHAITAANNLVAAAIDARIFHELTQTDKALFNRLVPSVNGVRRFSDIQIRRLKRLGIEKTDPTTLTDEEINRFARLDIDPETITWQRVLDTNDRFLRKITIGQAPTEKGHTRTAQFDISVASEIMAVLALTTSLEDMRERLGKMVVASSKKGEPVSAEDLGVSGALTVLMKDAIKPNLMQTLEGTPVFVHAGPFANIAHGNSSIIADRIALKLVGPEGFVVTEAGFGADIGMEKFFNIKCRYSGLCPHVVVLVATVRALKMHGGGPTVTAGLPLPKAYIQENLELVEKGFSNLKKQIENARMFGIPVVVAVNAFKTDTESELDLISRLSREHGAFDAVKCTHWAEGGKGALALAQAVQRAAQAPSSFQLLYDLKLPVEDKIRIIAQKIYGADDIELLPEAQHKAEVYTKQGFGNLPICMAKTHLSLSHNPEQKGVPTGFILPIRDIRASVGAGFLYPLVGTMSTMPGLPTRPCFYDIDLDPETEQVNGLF
UniProt P11586, whole entry, looked up: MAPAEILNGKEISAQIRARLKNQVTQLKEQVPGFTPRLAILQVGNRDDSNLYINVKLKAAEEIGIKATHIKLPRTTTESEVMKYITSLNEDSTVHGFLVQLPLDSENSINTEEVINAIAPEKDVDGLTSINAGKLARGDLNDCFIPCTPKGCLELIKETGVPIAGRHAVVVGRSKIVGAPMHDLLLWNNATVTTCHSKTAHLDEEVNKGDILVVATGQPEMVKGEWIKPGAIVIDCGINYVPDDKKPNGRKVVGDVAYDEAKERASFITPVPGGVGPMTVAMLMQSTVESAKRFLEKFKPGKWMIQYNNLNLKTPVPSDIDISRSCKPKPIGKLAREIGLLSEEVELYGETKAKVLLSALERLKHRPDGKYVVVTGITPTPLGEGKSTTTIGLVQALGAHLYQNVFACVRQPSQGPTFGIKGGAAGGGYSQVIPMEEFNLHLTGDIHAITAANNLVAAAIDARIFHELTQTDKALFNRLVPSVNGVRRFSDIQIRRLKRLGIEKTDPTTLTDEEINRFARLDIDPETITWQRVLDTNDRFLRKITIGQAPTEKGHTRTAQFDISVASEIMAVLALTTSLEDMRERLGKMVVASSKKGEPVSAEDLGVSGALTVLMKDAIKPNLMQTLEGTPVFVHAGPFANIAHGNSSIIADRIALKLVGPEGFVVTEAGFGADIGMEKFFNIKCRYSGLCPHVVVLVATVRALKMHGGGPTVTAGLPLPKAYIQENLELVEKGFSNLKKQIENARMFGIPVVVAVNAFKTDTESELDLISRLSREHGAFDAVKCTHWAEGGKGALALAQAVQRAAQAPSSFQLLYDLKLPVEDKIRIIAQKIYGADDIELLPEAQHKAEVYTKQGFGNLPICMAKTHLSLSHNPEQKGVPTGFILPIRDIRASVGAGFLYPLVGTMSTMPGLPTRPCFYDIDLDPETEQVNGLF
UniProt Q15746, whole entry, looked up: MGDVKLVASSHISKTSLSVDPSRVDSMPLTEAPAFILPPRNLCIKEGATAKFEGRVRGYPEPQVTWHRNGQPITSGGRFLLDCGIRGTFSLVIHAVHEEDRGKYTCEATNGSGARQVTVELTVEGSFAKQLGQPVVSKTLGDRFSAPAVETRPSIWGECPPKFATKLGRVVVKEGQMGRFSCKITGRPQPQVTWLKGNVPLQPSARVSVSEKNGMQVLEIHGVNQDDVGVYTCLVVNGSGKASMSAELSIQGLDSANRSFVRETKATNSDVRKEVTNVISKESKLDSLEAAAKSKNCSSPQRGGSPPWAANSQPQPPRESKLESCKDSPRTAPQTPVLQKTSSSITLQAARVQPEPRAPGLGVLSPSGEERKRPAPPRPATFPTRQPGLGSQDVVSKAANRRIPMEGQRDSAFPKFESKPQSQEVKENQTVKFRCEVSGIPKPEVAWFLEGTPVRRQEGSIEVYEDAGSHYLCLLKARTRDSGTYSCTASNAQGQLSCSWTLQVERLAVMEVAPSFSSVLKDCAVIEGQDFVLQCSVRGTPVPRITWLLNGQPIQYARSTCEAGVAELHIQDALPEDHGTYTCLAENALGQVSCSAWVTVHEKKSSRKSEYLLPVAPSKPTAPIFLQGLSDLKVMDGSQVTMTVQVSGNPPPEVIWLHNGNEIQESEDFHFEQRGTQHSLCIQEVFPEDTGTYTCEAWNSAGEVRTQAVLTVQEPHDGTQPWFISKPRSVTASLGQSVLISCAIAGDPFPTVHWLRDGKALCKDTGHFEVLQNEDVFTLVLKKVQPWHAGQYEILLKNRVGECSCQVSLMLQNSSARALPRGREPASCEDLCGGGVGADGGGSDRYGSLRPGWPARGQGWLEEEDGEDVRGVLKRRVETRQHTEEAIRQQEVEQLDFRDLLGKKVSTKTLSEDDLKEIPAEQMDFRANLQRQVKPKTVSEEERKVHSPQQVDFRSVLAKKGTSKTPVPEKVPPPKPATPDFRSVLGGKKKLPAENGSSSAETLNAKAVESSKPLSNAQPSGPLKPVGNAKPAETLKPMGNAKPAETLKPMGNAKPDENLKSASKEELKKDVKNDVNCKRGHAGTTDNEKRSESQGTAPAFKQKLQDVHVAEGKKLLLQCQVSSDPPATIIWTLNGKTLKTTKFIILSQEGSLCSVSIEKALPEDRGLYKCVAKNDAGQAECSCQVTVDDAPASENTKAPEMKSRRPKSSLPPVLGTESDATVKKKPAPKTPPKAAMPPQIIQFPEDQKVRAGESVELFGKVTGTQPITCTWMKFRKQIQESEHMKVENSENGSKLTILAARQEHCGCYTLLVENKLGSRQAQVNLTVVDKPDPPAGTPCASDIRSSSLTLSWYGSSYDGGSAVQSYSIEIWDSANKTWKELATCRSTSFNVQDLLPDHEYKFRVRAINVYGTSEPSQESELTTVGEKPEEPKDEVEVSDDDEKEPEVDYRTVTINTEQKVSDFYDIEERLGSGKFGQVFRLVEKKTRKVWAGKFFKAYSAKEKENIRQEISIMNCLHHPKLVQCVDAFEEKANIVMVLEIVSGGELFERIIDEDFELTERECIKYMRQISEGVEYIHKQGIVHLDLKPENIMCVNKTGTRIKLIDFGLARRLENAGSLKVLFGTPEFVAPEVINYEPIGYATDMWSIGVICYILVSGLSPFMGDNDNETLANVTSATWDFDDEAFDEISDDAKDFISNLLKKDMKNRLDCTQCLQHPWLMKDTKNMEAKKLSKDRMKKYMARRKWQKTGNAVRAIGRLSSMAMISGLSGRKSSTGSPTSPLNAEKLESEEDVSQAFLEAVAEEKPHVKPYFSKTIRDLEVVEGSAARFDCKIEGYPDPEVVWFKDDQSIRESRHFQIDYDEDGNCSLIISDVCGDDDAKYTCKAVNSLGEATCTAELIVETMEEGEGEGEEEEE
UniProt Q8NCE2: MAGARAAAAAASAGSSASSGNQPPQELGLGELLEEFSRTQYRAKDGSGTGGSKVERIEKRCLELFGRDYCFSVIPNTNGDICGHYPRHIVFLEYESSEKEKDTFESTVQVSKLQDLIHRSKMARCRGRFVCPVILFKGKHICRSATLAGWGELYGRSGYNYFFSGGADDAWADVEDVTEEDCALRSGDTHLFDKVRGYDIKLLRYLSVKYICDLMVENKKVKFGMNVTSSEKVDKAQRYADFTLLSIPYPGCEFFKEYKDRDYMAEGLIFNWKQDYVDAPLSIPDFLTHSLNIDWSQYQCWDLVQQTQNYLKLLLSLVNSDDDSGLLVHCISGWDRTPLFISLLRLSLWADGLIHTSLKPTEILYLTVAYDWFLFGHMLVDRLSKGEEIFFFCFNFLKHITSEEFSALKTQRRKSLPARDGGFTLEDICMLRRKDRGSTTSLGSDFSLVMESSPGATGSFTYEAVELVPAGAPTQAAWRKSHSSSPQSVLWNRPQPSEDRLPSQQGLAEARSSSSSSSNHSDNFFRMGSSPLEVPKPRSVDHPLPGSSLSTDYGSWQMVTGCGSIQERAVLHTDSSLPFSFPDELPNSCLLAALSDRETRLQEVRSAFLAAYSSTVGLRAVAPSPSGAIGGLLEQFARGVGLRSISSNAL
UniProt P13640: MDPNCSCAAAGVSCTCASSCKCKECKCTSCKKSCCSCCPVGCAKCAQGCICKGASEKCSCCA
UniProt Q9Y2Z2: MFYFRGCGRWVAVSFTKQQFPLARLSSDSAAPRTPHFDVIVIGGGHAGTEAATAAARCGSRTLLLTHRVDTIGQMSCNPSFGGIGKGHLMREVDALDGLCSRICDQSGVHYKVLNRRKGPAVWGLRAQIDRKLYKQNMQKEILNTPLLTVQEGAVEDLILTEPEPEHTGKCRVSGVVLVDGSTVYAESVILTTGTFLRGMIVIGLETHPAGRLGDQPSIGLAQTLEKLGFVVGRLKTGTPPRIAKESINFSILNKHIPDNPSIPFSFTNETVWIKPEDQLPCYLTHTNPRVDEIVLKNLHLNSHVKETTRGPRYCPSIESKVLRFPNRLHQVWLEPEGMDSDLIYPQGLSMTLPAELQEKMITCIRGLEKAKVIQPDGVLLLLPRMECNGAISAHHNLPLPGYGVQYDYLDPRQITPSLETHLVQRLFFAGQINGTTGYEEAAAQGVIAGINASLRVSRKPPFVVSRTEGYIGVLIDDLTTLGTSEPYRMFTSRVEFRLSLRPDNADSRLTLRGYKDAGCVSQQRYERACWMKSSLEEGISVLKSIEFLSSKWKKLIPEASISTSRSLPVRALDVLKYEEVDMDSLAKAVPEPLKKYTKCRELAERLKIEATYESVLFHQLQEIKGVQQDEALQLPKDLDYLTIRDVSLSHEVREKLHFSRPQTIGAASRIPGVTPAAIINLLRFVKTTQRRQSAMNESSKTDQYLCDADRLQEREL

Compound: CCCS(=O)(=O)Nc1ccc(F)c(C(=O)c2c[nH]c3ncc(-c4ccc(Cl)cc4)cc23)c1F [vemurafenib]
Assay: log2 fold change, soluble protein after heating vs DMSO (PISA); higher = thermal stabilisation; K562 cells, 10 uM, 30 min; active = over 0.2 and 3.5 SD of the protein, either way, in both replicates (recomputed)
Summary of the method: (§1)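 Values are thermal stability changes relative to control samples and are taken from duplicates. They are stated as log2 fold changes. Before quantification by TMTpro 16plex LC-MS/MS with equalised channel sums, K562 cells at 2×10^6 cells/mL were treated with 10 μM compound for 30 min, heated in aliquots for 3 min across 48°C-58°C, pooled, extracted in PBS with 0.5% NP-40 at 4°C, and centrifuged at 21,000xg for 90 min to give the soluble supernatant.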

log2 fold change, inactive:
MXRA8 isoform 2 (UniProt Q9BRK3) -0.055
MT-ND1 (UniProt P03886) 0.168
MTHFSD isoform 3 (UniProt Q2M296) -0.227
MYL6 (UniProt G3V1V0) 0.008
MRPS15 (UniProt P82914) -0.037
MTCH2 (UniProt E9PIE4) 0.045
MYO9A isoform 4 (UniProt B2RTY4) -0.11
MYH16 (UniProt Q9H6N6) 0.155
MT-CO3 (UniProt P00414) 0.175
MRPS14 (UniProt O60783) -0.012
MTHFD1, A0A384N5Y3 0.088
MTHFD1 (UniProt P11586) 0.06
MYLK (UniProt Q15746) 0.081
MRPS18C (UniProt Q9Y3D5) -0.01
MTMR14 (UniProt Q8NCE2) -0.02
MT-CO1 (UniProt P00395) -0.058
MYD88 isoform 6 (UniProt Q99836) 0.347
MT1G (UniProt P13640) -0.03
MTFR1L (UniProt Q9H019) 0.048
MRPS16 (UniProt Q9Y3D3) -0.014
MTFMT (UniProt Q96DP5) 0.012
MRPS21 (UniProt P82921) 0.079
MTMR1 (UniProt Q13613) -0.158
MRPS26 (UniProt Q9BYN8) -0.004
MTO1 isoform 6 (UniProt Q9Y2Z2) 0.019

Compound: CCCS(=O)(=O)Nc1ccc(F)c(C(=O)c2c[nH]c3ncc(Cl)cc23)c1F
Assay: as above
Summary of the method: as §1

log2 fold change, inactive:
MT-ND1 (UniProt P03886) 0.208
MTHFSD isoform 3 (UniProt Q2M296) 0.029
MRPS15 (UniProt P82914) 0.062
MTCH2 (UniProt E9PIE4) -0.022
MYH16 (UniProt Q9H6N6) 0.216
MT-CO3 (UniProt P00414) 0.216
MRPS14 (UniProt O60783) -0.048
MTHFD1, A0A384N5Y3 0.058
MTHFD1 (UniProt P11586) 0.046
MYLK (UniProt Q15746) -0.01
MRPS18C (UniProt Q9Y3D5) -0.016
MTA3 (UniProt Q9BTC8) 0.047
MTMR10 (UniProt Q9NXD2) -0.117
MTMR14 (UniProt Q8NCE2) 0.071
MT-CO1 (UniProt P00395) 0.123
MYD88 isoform 6 (UniProt Q99836) -0.143
MT1G (UniProt P13640) 0.011
MTFR1L (UniProt Q9H019) 0.116
MRPS16 (UniProt Q9Y3D3) 0.062
MTFMT (UniProt Q96DP5) 0.019
MRPS21 (UniProt P82921) 0.132
MTMR1 (UniProt Q13613) 0.03
MRPS26 (UniProt Q9BYN8) 0.049
MTERF4 (UniProt Q7Z6M4) 0.037
MTO1 isoform 6 (UniProt Q9Y2Z2) -0.002

Compound: CCCc1cc(C)[nH]c(=O)c1CNC(=O)c1cc(-c2ccnc(N3CCN(C)CC3)c2)cc2c1cnn2C(C)C
Assay: as above
Summary of the method: as §1

log2 fold change, inactive:
MXRA8 isoform 2 (UniProt Q9BRK3) -0.303
MT-ND1 (UniProt P03886) 0.019
MTHFSD isoform 3 (UniProt Q2M296) 0.105
MYL6 (UniProt G3V1V0) -0.007
MRPS15 (UniProt P82914) 0.023
MTCH2 (UniProt E9PIE4) 0.01
MYH16 (UniProt Q9H6N6) 0.12
MTERF3 (UniProt Q96E29) -0.113
MT-CO3 (UniProt P00414) -0.386
MTHFD1, A0A384N5Y3 -0.035
MTHFD1 (UniProt P11586) -0.013
MYLK (UniProt Q15746) -0.154
MRPS18C (UniProt Q9Y3D5) -0.215
MTMR10 (UniProt Q9NXD2) -0.078
MTMR14 (UniProt Q8NCE2) -0.016
MT-CO1 (UniProt P00395) -0.038
MYD88 isoform 6 (UniProt Q99836) 0.274
MT1G (UniProt P13640) -0.025
MRPS16 (UniProt Q9Y3D3) 0.032
MRPS21 (UniProt P82921) -0.018
MTMR1 (UniProt Q13613) 0.083
MRPS26 (UniProt Q9BYN8) -0.056
MTERF4 (UniProt Q7Z6M4) -0.282
MTO1 isoform 6 (UniProt Q9Y2Z2) 0.099
